Data: patent US11529332B2 (priority 2017, dated 2022)

System: MYXV
Assay: MYXV-GFP infection rate in RK13 cells (high content microscopy)
Conditions: selectivity index, ratio CC50 / IC50

O=[N+]([O-])c1ccc(F)c(-c2c3nc(c4ccc([nH]4)c(-c4cc([N+](=O)[O-])ccc4F)c4ccc([nH]4)c(-c4cc([N+](=O)[O-])ccc4F)c4ccc2[nH]4)C=C3)c1 [FNO2Cor, 5,10,15-Tris(2-fluoro-5-nitrophenyl)corrole]
SI (48 h PI): 2.81 | SI (6 d PI): 7.52

Fc1c(F)c(F)c(-c2c3nc(c4ccc([nH]4)c(-c4c(F)c(F)c(F)c(F)c4F)c4ccc([nH]4)c(-c4c(F)c(F)c(F)c(F)c4F)c4ccc2[nH]4)C=C3)c(F)c1F [TPFCor, 5,10,15-Tris(pentafluorophenyl)corrole]
SI (48 h PI): 24.40 | SI (6 d PI): 55.31

O=[N+]([O-])c1ccc(-c2c3nc(c4ccc([nH]4)c(-c4ccc([N+](=O)[O-])cc4)c4ccc([nH]4)c(-c4ccc([N+](=O)[O-])cc4)c4ccc2[nH]4)C=C3)cc1 [TpNO2Cor, 5,10,15-Tris(4-nitrophenyl)corrole]
SI (48 h PI): 10.25 | SI (6 d PI): 21.45
